PubChem BioAssay AID504744 | Drosophila RNAi Screening Center | 2011
The deposit covers about 23,000 reagents; shown is a random part of those with a known target gene and a result. Over the whole deposit, 98 (0.43%) are marked active. 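Only hit calls are given; the phospho-dAkt signals, z-scores and hit direction were not deposited.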 The numbers tell different reagents against one gene apart. A plus sign joins genes that one reagent is predicted to hit.

Aim: 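Find genes whose loss alters insulin-driven dAkt phosphorylation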 (primary screen)
System: Drosophila Kc167 cells
Knock-down reagent: long dsRNA against Drosophila genes, 250 ng dsRNA per well of a 384-well plate
Time to read-out: 3 days of knock-down, then overnight serum-free starvation before stimulation
Treatment: bovine insulin at 387 nM for 10 minutes after 12 h without serum
Measured: 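In-cell antibody fluorescence for phospho-dAkt in each well over DNA-dye signal, with log2 residuals expressed as z-scores adjusted for cell count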
Active means: 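Hit in the insulin screen when the two-replicate mean z-score is more extreme than plus or minus 2.5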

mthl2 (methuselah-like 2)
- call: inactive

babo (baboon)
- call: inactive

Rnb (R and B)
- call: inactive

Cpsf73 (Cleavage and polyadenylation specificity factor 73)
- call: inactive

lbl (ladybird late)
- call: inactive

Gem4b + Gem4c
- call: inactive

CG14511
- call: inactive

baf (barrier to autointegration factor)
- call: inactive

CG10553
- call: inactive

RIOK1 (RIO kinase 1)
- call: inactive

Ns1 (Nucleostemin 1)
- call: inactive

CG14042 + SP555 #1
- call: inactive

CG14042 + SP555 #2
- call: inactive

CG42390
- call: inactive

UbcE2H (Ubiquitin conjugating enzyme E2H)
- call: inactive

Coq7 + shf
- call: inactive

Alas (Aminolevulinate synthase)
- call: inactive

CG34243 (retired record) #1
- call: inactive

CG34243 (retired record) #2
- call: inactive

CG14572
- call: inactive

CG16888
- call: inactive

HLH4C (Helix loop helix protein 4C) #1
- call: inactive

HLH4C (Helix loop helix protein 4C) #2
- call: inactive
